Percent effect of library compounds

The values are deposited in ChEMBL (CHEMBL3988442, “University of Dundee, Small-Polar-MMV Screening Library” (2021)).

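Phenotypic screen: M. tuberculosis growth, cholesterol and DPPC medium, 4 days; the read-out is not stated. Tested at 500 µM. Direction is inferred from retests: higher values go with more growth inhibition. Of about 18,000 compounds tested this way, about 900 (5%) reached 50% or more in at least one test.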

Each number is a percent effect as filed.
How 0% and 100% were set is not recorded. Most values in the screen are low, and negative values occur.
Compounds were drawn at random from those tested, without regard to their results.

structure	percent effect
COc1cccc(CNC(=O)N2CCCC(CO)C2)c1 (centres undefined)	6.155%
Cc1ocnc1C(=O)NCCNC(=O)c1cccnc1	2.011%
Cc1n[nH]c(SCC(=O)NCCCc2csc(N)n2)n1	-9.787%
CN1CCCN(S(=O)(=O)c2ccccc2)CC1	2.441%
NCc1ccnc(OC(F)F)c1	17.04%
NCCCN(C(=O)C1CCC1)C1CC1	13.28%
CCC1c2ccsc2CCN1CC(=O)NC (centres undefined)	17.59%
Cc1nnc(CN2CC[C@@]3(O)CCCC[C@H]3C2)o1	-4.656%
Cc1cc(CNC(=O)N[C@@H](C)C(=O)N(C)C)ccc1Cl	-2.033%
O=C(NCCNc1cccc(Br)c1)C1CCOC1 (centres undefined)	-2.613%
Cn1cc(C2CSCCN2Cc2ccon2)cn1 (centres undefined)	0.2415%
CSCCCNC(=O)Nc1cc(C)ccn1	-10.97%
O=C(COC(=O)CN1CCCC1=O)NCc1cccs1	-8.044%
NCC[C@@H]1CCC(=O)N1	-5.406%
NC1(c2ccccc2)CCNC1 (centres undefined)	-23.27%
CN(CCCOc1ccc(S(C)(=O)=O)cc1)CC(N)=O	13.53%
CCNC(=O)Cc1nc(-c2ccncc2)n[nH]1	-0.6263%
CCN1CC(C(=O)NCCc2nccs2)CC1=O (centres undefined)	6.292%
CC(C(N)=O)N(C)CCCOc1ccccc1 (centres undefined)	0.01611%
Cc1ccc(CNc2ccc(N(C)C)nc2)o1	-1112%
COCc1cc(C)nc(SCC#N)c1C#N	5.497%
CNC(=O)NCc1cccc(OC)c1	5.273%
CC(=O)N1N=C(c2cccnc2)CC1c1ccco1 (centres undefined)	-8.842%
c1ccc(-c2noc(CN3CCCC3)n2)cc1	17.46%
CC(CCn1cccn1)NC1CCOCC1 (centres undefined)	-7.099%
CCS(=O)(=O)NCCSc1nc2cc(F)c(F)cc2[nH]1	58.75%
Cc1ccn(CCCOC(C)C)c(=O)c1C#N	7.634%
O=C(c1ccc(Cn2cccn2)cc1)N1CCC1	22.57%
CCN(CC)Cc1ccc2c(c1)CNCCO2	-25.16%
CC(C)c1noc(CC2CCNCC2)n1	-2.504%
NCC1CCCN(C2CCCC2)C1 (centres undefined)	5.496%
CC(N1CCN(S(N)(=O)=O)CC1)C(F)(F)F (centres undefined)	9.369%
COc1cc(C(=O)N(CCO)CC2CC2)ccc1C	32.46%
O=C(CN1C[C@H]2CC[C@@H](C1)[C@H]2O)Nc1ccc(F)cc1	33.52%
COc1cccc(Cn2cnc(C#N)n2)c1	31.44%
CC(C)(CC(N)=O)NCc1nc(-c2ccccc2)no1	18.64%
COc1ccc(CCN)c(O)c1	52.08%
COC1Cc2ccccc2N(C(=O)c2cnn(C)c2)C1 (centres undefined)	-15.3%
CN(Cc1nnc2n1CCC2)C(=O)c1ccc(Cl)s1	-6.8%
CN1CCCN(C(=O)Nc2ccc(Cl)cc2)CC1	7.595%
CN(C)CCCOc1cnccc1CN	-9.153%
CC(C)=CCNC(=O)NCC(C)(C)N1CCOCC1	-4.449%
CC1Cc2ccccc2N1S(C)(=O)=O (centres undefined)	15.59%
CCn1cc(NC(=O)CN2CCC(C)CC2)ccc1=O	-15.13%
NC(=O)C(N)c1ccc(Cl)cc1 (centres undefined)	17.54%
CCn1cc(C(=O)NCc2nnc(C(C)C)n2C)cn1	7.61%
NCc1cccnc1N	3.749%
CCCN(C(=O)c1cscn1)C1CCNCC1	9.888%
CC(O)c1cc2n(n1)CCN(Cc1cccnc1)C2 (centres undefined)	7.399%
Cn1nccc1NC(=O)N1CCCN(CC(F)F)CC1	9.765%
Cc1noc(CN2CCC(C(N)=O)CC2)n1	-5.184%
c1ccc(OCC2CNCCO2)cc1 (centres undefined)	36.9%
CC(C)Oc1cc(Br)ccc1C(=O)N(C)CC(N)=O	0.7558%
O=C(NCCc1c[nH]cn1)c1ccncc1	6.218%
CCN(CC)CC(=O)Nc1c2c(nn1C)CCC2	-6.89%
CNc1nc(CNC(=O)Nc2c(C)noc2C)cs1	2.274%
O=C(c1ccc(Br)cn1)N1CCN(CCO)CC1	4.965%
COC(=O)C(C)Nc1ccc(C(N)=O)cc1 (centres undefined)	0.186%
CCOc1ccccc1CSc1nnc(O)[nH]1	-12.97%